# Data taken from the supplement of paper PMC10032668.
# Chains of the proteins cited; added tags and fusions are not shown.
# HDAC1, Q13547, UniProt Q13547, whole entry: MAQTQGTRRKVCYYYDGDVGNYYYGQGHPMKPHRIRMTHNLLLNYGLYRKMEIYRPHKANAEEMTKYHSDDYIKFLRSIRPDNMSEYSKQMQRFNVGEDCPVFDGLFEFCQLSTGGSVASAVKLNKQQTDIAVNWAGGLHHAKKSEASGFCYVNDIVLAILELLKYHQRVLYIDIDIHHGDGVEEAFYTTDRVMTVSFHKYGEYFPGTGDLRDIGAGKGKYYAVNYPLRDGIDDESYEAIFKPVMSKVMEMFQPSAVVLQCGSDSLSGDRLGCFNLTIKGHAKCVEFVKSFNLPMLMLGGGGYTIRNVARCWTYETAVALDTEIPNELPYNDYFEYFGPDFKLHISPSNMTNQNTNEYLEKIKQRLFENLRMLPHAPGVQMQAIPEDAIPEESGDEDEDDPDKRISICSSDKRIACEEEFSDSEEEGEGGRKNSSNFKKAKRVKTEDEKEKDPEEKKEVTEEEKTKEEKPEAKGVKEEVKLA
# SMARCE1, Q969G3, UniProt Q969G3, whole entry: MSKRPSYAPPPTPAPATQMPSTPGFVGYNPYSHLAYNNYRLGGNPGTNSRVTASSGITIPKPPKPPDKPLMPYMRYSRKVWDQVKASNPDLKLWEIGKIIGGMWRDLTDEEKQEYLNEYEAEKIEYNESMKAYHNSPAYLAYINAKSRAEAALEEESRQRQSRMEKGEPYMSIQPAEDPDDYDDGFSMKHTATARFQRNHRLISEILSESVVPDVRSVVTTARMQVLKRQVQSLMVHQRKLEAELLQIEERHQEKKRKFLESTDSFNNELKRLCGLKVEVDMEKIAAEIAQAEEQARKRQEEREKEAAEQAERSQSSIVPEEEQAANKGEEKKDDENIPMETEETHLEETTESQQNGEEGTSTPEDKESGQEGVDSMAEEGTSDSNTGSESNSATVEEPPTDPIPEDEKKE
# EPB41L2, O43491, UniProt O43491, whole entry: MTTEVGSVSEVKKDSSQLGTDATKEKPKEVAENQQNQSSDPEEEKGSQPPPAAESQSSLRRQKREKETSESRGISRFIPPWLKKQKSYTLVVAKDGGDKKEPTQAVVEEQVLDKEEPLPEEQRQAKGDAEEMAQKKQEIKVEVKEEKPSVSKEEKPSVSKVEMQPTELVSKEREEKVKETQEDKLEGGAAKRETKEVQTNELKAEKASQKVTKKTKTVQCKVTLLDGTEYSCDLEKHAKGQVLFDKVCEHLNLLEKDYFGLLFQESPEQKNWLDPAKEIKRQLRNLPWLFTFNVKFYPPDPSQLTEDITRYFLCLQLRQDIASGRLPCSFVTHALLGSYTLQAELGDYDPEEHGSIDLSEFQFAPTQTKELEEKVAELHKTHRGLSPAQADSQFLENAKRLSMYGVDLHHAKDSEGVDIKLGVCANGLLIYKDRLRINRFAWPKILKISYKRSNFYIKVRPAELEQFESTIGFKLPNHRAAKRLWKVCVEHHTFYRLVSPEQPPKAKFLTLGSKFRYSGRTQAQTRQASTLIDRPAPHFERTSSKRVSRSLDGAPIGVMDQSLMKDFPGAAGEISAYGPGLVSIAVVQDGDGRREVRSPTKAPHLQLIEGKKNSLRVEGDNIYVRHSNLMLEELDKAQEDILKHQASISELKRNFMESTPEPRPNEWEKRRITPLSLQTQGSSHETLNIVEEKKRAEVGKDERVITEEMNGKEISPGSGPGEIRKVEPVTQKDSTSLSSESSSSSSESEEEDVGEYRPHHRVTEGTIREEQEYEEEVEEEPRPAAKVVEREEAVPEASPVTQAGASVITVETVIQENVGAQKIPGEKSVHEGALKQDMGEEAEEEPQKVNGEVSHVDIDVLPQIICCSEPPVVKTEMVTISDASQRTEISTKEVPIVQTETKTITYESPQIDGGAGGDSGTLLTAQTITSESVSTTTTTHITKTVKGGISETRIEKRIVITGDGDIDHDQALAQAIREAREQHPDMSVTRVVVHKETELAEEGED
# RANBP1, P43487, UniProt P43487, whole entry: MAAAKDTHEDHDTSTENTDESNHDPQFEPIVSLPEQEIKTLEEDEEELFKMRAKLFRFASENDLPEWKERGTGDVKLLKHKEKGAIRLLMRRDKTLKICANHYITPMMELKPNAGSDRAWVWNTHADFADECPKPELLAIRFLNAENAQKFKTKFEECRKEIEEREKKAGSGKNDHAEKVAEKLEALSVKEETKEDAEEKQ
# TRRAP, Q9Y4A5, UniProt Q9Y4A5, whole entry: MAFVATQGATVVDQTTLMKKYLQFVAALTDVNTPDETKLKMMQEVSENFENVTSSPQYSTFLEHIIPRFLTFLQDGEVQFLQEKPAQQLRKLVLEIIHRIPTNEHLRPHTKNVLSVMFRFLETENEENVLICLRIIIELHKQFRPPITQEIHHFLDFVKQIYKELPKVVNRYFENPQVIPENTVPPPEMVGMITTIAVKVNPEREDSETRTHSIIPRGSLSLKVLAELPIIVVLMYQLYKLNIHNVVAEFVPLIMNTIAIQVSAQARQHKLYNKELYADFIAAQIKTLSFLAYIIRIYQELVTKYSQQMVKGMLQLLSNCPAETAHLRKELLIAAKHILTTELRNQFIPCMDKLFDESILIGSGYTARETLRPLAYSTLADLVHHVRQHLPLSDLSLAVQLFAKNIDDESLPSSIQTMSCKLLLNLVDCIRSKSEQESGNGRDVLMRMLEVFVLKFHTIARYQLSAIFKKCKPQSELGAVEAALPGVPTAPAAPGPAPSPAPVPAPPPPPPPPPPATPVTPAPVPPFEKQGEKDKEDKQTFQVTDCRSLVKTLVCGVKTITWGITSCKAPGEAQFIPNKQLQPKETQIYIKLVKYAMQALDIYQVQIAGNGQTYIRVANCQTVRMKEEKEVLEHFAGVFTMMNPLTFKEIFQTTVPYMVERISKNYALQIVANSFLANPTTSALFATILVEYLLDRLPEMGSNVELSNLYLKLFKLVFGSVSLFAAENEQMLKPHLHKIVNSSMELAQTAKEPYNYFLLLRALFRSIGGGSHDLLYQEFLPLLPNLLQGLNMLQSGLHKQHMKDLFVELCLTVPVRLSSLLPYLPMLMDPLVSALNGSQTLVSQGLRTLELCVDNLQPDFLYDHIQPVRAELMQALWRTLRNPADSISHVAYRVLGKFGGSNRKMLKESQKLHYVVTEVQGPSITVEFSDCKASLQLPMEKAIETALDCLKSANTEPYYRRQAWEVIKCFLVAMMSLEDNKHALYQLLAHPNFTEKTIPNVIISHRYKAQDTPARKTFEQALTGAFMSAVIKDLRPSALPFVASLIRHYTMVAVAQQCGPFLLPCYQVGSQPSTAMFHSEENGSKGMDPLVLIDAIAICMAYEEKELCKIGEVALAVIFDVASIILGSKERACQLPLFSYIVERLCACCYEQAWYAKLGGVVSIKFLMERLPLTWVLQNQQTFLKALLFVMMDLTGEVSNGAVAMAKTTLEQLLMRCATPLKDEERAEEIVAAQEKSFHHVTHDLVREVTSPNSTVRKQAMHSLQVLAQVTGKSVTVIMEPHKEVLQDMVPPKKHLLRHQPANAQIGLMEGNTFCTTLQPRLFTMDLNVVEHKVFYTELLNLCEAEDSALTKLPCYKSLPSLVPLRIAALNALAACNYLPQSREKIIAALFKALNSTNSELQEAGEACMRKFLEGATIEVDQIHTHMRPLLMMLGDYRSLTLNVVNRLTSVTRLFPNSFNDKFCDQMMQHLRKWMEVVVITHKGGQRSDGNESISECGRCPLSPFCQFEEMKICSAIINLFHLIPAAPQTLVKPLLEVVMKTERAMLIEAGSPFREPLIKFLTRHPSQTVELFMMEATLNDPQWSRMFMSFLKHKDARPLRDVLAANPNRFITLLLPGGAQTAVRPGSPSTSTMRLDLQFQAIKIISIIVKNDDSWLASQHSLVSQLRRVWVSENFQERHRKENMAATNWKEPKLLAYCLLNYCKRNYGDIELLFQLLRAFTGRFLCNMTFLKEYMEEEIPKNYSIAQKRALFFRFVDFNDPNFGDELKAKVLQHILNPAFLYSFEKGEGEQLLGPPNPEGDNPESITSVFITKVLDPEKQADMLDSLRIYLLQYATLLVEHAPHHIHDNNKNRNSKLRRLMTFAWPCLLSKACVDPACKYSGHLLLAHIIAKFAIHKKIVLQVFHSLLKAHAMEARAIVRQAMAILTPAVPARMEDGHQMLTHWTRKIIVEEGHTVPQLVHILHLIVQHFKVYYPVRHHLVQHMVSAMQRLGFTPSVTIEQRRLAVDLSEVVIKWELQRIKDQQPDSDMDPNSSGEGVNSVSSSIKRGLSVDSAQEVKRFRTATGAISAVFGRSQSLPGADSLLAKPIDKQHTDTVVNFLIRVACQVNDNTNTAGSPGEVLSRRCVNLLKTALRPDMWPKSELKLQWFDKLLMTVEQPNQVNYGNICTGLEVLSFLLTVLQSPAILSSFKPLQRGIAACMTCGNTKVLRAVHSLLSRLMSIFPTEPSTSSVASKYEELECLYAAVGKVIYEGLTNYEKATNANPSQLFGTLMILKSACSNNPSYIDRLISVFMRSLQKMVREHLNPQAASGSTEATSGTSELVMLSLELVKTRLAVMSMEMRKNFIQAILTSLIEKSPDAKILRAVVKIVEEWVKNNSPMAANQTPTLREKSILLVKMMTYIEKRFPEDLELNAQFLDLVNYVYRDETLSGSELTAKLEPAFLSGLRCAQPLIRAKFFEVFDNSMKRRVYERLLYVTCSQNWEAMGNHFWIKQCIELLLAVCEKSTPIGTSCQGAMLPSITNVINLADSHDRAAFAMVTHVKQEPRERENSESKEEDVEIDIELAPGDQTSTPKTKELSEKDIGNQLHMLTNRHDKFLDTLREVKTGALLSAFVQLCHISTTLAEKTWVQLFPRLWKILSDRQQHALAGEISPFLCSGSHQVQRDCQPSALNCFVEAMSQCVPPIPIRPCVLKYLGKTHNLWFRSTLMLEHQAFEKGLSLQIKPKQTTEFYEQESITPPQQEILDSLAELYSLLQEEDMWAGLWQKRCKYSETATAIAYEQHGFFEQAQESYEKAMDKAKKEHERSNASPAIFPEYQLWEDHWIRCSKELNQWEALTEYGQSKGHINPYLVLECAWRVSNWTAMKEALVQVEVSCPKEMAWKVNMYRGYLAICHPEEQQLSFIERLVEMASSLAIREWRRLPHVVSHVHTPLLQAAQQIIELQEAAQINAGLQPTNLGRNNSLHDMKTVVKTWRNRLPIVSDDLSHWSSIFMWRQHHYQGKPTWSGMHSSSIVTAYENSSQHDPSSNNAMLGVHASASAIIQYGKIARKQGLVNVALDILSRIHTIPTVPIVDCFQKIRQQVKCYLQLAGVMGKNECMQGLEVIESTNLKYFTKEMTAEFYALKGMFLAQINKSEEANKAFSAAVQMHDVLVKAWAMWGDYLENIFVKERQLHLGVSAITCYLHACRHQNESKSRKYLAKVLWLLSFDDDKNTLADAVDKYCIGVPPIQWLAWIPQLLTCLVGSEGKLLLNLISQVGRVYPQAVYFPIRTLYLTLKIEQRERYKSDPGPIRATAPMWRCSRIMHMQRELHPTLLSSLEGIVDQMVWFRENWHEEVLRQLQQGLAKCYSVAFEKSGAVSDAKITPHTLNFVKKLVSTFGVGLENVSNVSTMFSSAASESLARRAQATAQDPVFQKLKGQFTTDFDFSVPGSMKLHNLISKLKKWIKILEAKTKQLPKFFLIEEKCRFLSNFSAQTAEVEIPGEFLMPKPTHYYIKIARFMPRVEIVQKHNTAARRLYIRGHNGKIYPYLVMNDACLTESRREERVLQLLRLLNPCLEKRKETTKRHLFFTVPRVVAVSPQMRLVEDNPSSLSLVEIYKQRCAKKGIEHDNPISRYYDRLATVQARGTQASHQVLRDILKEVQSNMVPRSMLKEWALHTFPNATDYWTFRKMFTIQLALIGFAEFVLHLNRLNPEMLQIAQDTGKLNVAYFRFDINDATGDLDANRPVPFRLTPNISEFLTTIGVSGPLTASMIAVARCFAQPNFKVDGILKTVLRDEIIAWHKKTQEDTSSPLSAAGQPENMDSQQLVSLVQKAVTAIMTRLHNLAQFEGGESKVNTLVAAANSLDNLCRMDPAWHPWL
# CKS1B, P61024, UniProt P61024, whole entry: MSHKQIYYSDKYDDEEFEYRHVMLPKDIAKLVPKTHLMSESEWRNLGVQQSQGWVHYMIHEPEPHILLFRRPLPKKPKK
# TUBB8, Q3ZCM7, UniProt Q3ZCM7, whole entry: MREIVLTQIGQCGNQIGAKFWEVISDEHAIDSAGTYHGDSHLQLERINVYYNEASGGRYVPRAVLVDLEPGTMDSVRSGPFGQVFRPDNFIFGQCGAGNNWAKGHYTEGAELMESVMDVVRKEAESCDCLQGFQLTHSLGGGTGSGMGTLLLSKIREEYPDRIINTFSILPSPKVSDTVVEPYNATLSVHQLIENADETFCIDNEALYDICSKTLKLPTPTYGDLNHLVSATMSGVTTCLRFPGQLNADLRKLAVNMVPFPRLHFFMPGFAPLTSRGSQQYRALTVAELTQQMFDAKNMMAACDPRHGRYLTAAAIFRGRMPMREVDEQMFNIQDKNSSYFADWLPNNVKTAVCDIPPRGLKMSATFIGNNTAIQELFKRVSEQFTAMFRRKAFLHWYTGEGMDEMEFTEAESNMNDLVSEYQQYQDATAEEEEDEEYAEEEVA
# ± gives the standard deviation of the averaged measurements. This is one part of the list. The list holds hits alone, and they repeat only in part.
# How the values were obtained:
# Experiment in all cases: PRISMA enrichment of interactor (LFQ) in peptide spot vs all other peptide spots (log2 fold change); higher = stronger / more specific binding of the interactor to the peptide
# [1] = target: ALDH4A1, P30038
# Description: (§1)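 PRISMA: 15-aa overlapping tiles (offset 8 aa) of 60 microproteins, plus SOS1/GLUT1 control peptides, were spot-synthesized on cellulose membranes in triplicate. Membranes were incubated with benzonase-treated HEK293T lysate, and bound proteins were identified by LC-MS/MS with LFQ. Enrichment is the log2 fold change of each protein in one spot versus all other spots. Only interactors passing the significance cutoff are listed.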
# [2] = target: DFFA, O00273
# Description: as §1
# [3] = target: DNAJB4, Q9UDY4
# Description: as §1
# [4] = target: GAPVD1, Q14C86
# Description: as §1
# [5] = target: HADHB, P55084
# Description: as §1
# [6] = target: HDAC1, Q13547
# Description: as §1
# [7] = target: HDDC2, Q7Z4H3
# Description: as §1
# [8] = target: LSG1, Q9H089
# Description: as §1
# [9] = target: NKRF, O15226
# Description: as §1
# [10] = target: OPA1, O60313
# Description: as §1
# [11] = target: RAB6A, P20340
# Description: as §1
# [12] = target: RCL1, Q9Y2P8
# Description: as §1
# [13] = target: SMARCE1, Q969G3
# Description: as §1
# [14] = target: SNX2, O60749
# Description: as §1
# [15] = target: STIP1, P31948
# Description: as §1
# [16] = target: YIPF5, Q969M3
# Description: as §1
# [17] = target: ALDH9A1, P49189
# Description: as §1
# [18] = target: ANP32A, P39687
# Description: as §1
# [19] = target: ANP32B, Q92688
# Description: as §1
# [20] = target: C1QBP, Q07021
# Description: as §1
# [21] = target: CXorf56, Q9H5V9
# Description: as §1
# [22] = target: EPB41L2, O43491
# Description: as §1
# [23] = target: FAM50A, Q14320
# Description: as §1
# [24] = target: MRPL27, Q9P0M9
# Description: as §1
# [25] = target: NAP1L1, P55209
# Description: as §1
# [26] = target: PRIM1, P49642
# Description: as §1
# [27] = target: RANBP1, P43487
# Description: as §1
# [28] = target: RPS29, P62273
# Description: as §1
# [29] = target: TRRAP, Q9Y4A5
# Description: as §1
# [30] = target: CKS1B, P61024
# Description: as §1
# [31] = target: MSI1, O43347
# Description: as §1
# [32] = target: PRRC2C, Q9Y520
# Description: as §1
# [33] = target: PTGES3, Q15185
# Description: as §1
# [34] = target: RBM38, Q9H0Z9
# Description: as §1
# [35] = target: RHOA, P61586
# Description: as §1
# [36] = target: TUBB8, Q3ZCM7
# Description: as §1
# [37] = target: ZNF317, Q96PQ6
# Description: as §1
binder,measurement,setting,value
AGRGGSTPWAPHSPP [C5orf56],PRISMA enrichment of interactor (log2),[1],4.56
same,PRISMA enrichment of interactor (log2),[2],7.82
same,PRISMA enrichment of interactor (log2),[3],6.21
same,PRISMA enrichment of interactor (log2),[4],5.05
same,PRISMA enrichment of interactor (log2),[5],5.63
same,PRISMA enrichment of interactor (log2),[6],8.27
same,PRISMA enrichment of interactor (log2),[7],5.12
same,PRISMA enrichment of interactor (log2),[8],4.57
same,PRISMA enrichment of interactor (log2),[9],5.01
same,PRISMA enrichment of interactor (log2),[10],5.94
same,PRISMA enrichment of interactor (log2),[11],4.39
same,PRISMA enrichment of interactor (log2),[12],6.75
same,PRISMA enrichment of interactor (log2),[13],6.25
same,PRISMA enrichment of interactor (log2),[14],5.29
same,PRISMA enrichment of interactor (log2),[15],5.01
same,PRISMA enrichment of interactor (log2),[16],4.26
KPPPRRRARGPGGGP [RP11-140K17.3_2],PRISMA enrichment of interactor (log2),[17],6.62
same,PRISMA enrichment of interactor (log2),[18],6.36
same,PRISMA enrichment of interactor (log2),[19],6.27
same,PRISMA enrichment of interactor (log2),[20],6.51
same,PRISMA enrichment of interactor (log2),[21],5.47
same,PRISMA enrichment of interactor (log2),[22],4.51
same,PRISMA enrichment of interactor (log2),[23],4.89
same,PRISMA enrichment of interactor (log2),[24],6.84
same,PRISMA enrichment of interactor (log2),[25],5.95 ± 0.13
same,PRISMA enrichment of interactor (log2),[26],6.17
same,PRISMA enrichment of interactor (log2),[27],5.39
same,PRISMA enrichment of interactor (log2),[28],4.82
same,PRISMA enrichment of interactor (log2),[29],5.13
IESRSYMFSPSRAFR [RP3-332B22.1],PRISMA enrichment of interactor (log2),[17],6.98
same,PRISMA enrichment of interactor (log2),[30],4.23
same,PRISMA enrichment of interactor (log2),[31],6.95
same,PRISMA enrichment of interactor (log2),[32],4.64
same,PRISMA enrichment of interactor (log2),[33],4.98
same,PRISMA enrichment of interactor (log2),[34],6.63
same,PRISMA enrichment of interactor (log2),[35],4.53
same,PRISMA enrichment of interactor (log2),[36],4.24
same,PRISMA enrichment of interactor (log2),[37],4.03

# A second format for part of the listing above:
binder	measurement	setting	value
KPPPRRRARGPGGGP [RP11-140K17.3_2]	PRISMA enrichment of interactor (log2)	[26]	6.17
same	PRISMA enrichment of interactor (log2)	[27]	5.39
